Experimental data: PubChem BioAssay AID1259263 (Sanger Institute, 2017)
Purpose: 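Find siRNA and drug combinations lethal together in bowel cancer cells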 (follow-up of hits). Cell system: SW1463 human colorectal cancer cell line. Reagent: single siRNA against human genes. Conditions: anchor drugs BYL719 at 1 µM, cetuximab at 5 µg/ml or trametinib at 10 nM, or DMSO vehicle, added one day after siRNA transfection. Read-out: 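Viability relative to a non-targeting siRNA control, averaged over replicates, plus a synergy score contrasting measured with expected viability loss for knock-down and drug combined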. Reading the numbers: synergy score with trametinib and synergy score with BYL719 and synergy score with cetuximab: higher = stronger synthetic lethal effect with the drug. Call rule: 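a synergy score over 0.10 with any anchor drug (BYL719, cetuximab or trametinib) marks the siRNA active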. Meaning of the calls: active = synergy with at least one drug; inactive = no synergy with any drug.
In all, the deposit lists 160 reagents; below is a random part of them. In the full data, 101 (63%) are marked active. 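Drug doses chosen to kill few cells alone; each row is one siRNA, and a gene counts as confirmed only if two or more siRNAs show synergy.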 The numbers tell different reagents against one gene apart. Further read-outs or replicates are left out here. Not given: the amount of reagent, the time to read-out.

PINK1 #1 → synergy score with trametinib = 0.0649; synergy score with BYL719 = -0.0704; synergy score with cetuximab = 0.0278; activity call = inactive
PINK1 #2 → synergy score with trametinib = 0.202; synergy score with BYL719 = 0.0419; synergy score with cetuximab = 0.177; activity call = active
PINK1 #3 → synergy score with trametinib = 0.0617; synergy score with BYL719 = -0.0805; synergy score with cetuximab = -0.116; activity call = inactive
PINK1 #4 → synergy score with trametinib = 0.19; synergy score with BYL719 = -0.00518; synergy score with cetuximab = 0.168; activity call = active
PLK1 #1 → synergy score with trametinib = 0.163; synergy score with BYL719 = 0.233; synergy score with cetuximab = -0.00142; activity call = active
PLK1 #2 → synergy score with trametinib = -0.0592; synergy score with BYL719 = -0.0787; synergy score with cetuximab = -0.0962; activity call = inactive
PLK1 #3 → synergy score with trametinib = 0.0923; synergy score with BYL719 = 0.0719; synergy score with cetuximab = -0.0333; activity call = inactive
PLK1 #4 → synergy score with trametinib = -0.0725; synergy score with BYL719 = -0.118; synergy score with cetuximab = 0.0552; activity call = inactive

Part of the list above in another layout.
| target gene | reagent no. | synergy score with trametinib | synergy score with BYL719 | synergy score with cetuximab | activity call |
| --- | --- | --- | --- | --- | --- |
| PLK1 | 1 | 0.163 | 0.233 | -0.00142 | active |
| PLK1 | 2 | -0.0592 | -0.0787 | -0.0962 | inactive |

Further reagents:
IKBKB #1 → synergy score with trametinib = -0.0454; synergy score with BYL719 = -0.0475; synergy score with cetuximab = -0.117; activity call = inactive
IKBKB #2 → synergy score with trametinib = 0.225; synergy score with BYL719 = 0.174; synergy score with cetuximab = 0.165; activity call = active
IKBKB #3 → synergy score with trametinib = 0.071; synergy score with BYL719 = 0.0622; synergy score with cetuximab = -0.13; activity call = inactive
IKBKB #4 → synergy score with trametinib = 0.0461; synergy score with BYL719 = 0.0606; synergy score with cetuximab = -0.201; activity call = inactive
CAMK2N1 #1 → synergy score with trametinib = 0.0169; synergy score with BYL719 = -0.022; synergy score with cetuximab = -0.0953; activity call = inactive
CAMK2N1 #2 → synergy score with trametinib = 0.0445; synergy score with BYL719 = 0.372; synergy score with cetuximab = 0.0578
CAMK2N1 #3 → synergy score with trametinib = 0.314; synergy score with BYL719 = 0.202; synergy score with cetuximab = 0.0521; activity call = active
CAMK2N1 #4 → synergy score with trametinib = -0.119; synergy score with BYL719 = 0.029; synergy score with cetuximab = -0.0257; activity call = inactive
GUCY2D #1 → synergy score with trametinib = 0.054; synergy score with BYL719 = -0.242; synergy score with cetuximab = 0.0203; activity call = inactive
GUCY2D #2 → synergy score with trametinib = 0.157; synergy score with BYL719 = 0.0764; synergy score with cetuximab = -0.0553; activity call = active
GUCY2D #3 → synergy score with trametinib = -0.179; synergy score with BYL719 = -0.268; synergy score with cetuximab = -0.0702; activity call = inactive
GUCY2D #4 → synergy score with trametinib = 0.0326; synergy score with BYL719 = -0.11; synergy score with cetuximab = -0.208; activity call = inactive
